Measured values published in publication PMC3334620.
Whether high values mean tight binding is not given here for every scale. Tags and fusion partners may be left off the protein sequences shown.

molecular target: T1, Vhr2 (Saccharomyces cerevisiae) (UniProt P40041); assay: binding assay; conditions: 200 nM, protein translated in vitro, protein details: N-terminal GST (pDEST15), kept, only the motif is given
T1 sequence (looked up): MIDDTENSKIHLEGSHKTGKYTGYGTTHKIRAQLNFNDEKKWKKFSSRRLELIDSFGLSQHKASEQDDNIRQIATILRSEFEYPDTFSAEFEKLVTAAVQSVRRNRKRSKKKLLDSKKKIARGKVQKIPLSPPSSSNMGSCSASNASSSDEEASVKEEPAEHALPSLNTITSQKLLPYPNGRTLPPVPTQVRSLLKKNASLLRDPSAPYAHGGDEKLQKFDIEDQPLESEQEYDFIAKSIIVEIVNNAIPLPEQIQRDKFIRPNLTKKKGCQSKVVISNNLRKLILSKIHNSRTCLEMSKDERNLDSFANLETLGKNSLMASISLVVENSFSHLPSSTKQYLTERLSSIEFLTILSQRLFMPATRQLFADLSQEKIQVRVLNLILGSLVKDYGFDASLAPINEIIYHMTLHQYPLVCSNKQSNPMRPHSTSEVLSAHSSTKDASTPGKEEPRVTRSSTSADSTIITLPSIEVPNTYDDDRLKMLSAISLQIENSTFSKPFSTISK

| Sequence | binding signal (PBM E-score (-0.5 to 0.5)) |
| --- | --- |
| ATAGACCG (double strand) [8-mer ATAGACCG] | -0.067 |
| CCGGAAAC (double strand) [8-mer CCGGAAAC] | -0.084 |
| CCGGACGA (double strand) [8-mer CCGGACGA] | 0 |
| CCGTGTAA (double strand) [8-mer CCGTGTAA] | -0.034 |
| GATACTTA (double strand) [8-mer GATACTTA] | -0.017 |
| GATAGTTA (double strand) [8-mer GATAGTTA] | -0.051 |
